# Experimental data taken from PubChem BioAssay AID504467 (National Center for Advancing Translational Sciences (NCATS), 2011).
# The whole screen tested about 330,000 compounds, of which about 7,700 (2.3%) were called active. The shares of active, inactive and inconclusive entries below differ from those in the screen. The call rests on the fitted dose curve; in most records, active means well fitted inhibition curve with a large enough effect; inconclusive means small, poorly fitted or top-dose-only effect, or effect the other way; inactive means flat fitted curve, though single readings scatter. Potencies of inconclusive entries are doubtful fits and often do not repeat.
# Assay: qHTS screen for small molecules that inhibit ELG1-dependent DNA repair in human embryonic kidney (HEK293T) cells expressing luciferase-tagged ELG1; further: nearly all actives have a fitted effect of over 55% in size
# Conditions: HEK293T ELG1-luciferase reporter, luminescence, 16 h, DNA damage induced by 5-fluorouridine; series mostly up to 46.1 µM
# In short: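 Overnight (16 hr) co-exposure of 2,000 cells/well to 5-fluorouridine and compound at 37 °C preceded detection. Luciferase was quantified via ONE-Glo luminescence; loss of signal denotes inhibition.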
# Potency means the concentration at half of the fitted maximal effect.
row,Compound,Potency
1,COc1ccc([N+](=O)[O-])cc1N(CC(O)CN(C)C)S(=O)(=O)c1ccccc1 (stereo not drawn),inactive
2,Cc1ccc(N=Cc2c(O)c3ccccc3oc2=O)cc1F,inactive
3,O=C1/C(=C\c2ccc3c(c2)OCO3)CCC/C1=C/c1ccc2c(c1)OCO2,inactive
4,COc1cc(N=c2c([N+](=O)[O-])nn(-c3ccc4c(c3)OCCO4)n2O)cc(OC)c1,"inconclusive: 2.31 µM [activator, partial curve]"
5,Cc1cc(Cl)n2ncc(-c3ccccc3)c2n1,"inconclusive: 1.83 µM [activator, partial curve, poor fit]"
6,O=C(CNc1ccc(Cl)cc1)c1ccc(Br)cc1,inactive
7,Cc1ccc(CCN2CC(C(=O)NCCCN3CCC(C)CC3)CC2=O)cc1 (stereo not drawn),"inconclusive: 29.1 µM [activator, partial curve, poor fit]"
8,COc1ccc(/C=C/C=C2\N=C(SC)SC2=O)cc1,"inconclusive: 18.4 µM [activator, single point]"
9,O=C(Nc1ccc(Cc2ccncc2)cc1)C1CC1,inactive
10,N#Cc1ccsc1NC(=O)CN1CCN(S(=O)(=O)c2cc(Cl)ccc2Cl)CC1,"inconclusive: 23.1 µM [inhibitor, single point]"
11,Nc1nc(NCCOCCO)nc(NC2CCCCC2)c1[N+](=O)[O-],inactive
12,Cc1ccc(Cl)c(OCC(=O)Nc2ccc3c(c2)OCCO3)c1,"inconclusive: 5.8 µM [activator, partial curve]"
13,CCC(c1nnnn1C1CCCC1)N(Cc1cccs1)Cc1cc2cccc(C)c2[nH]c1=O (stereo not drawn),"inconclusive: 29.1 µM [inhibitor, single point]"
14,CN(C)c1ccc(/C=C/C(=O)c2ccccc2)cc1[N+](=O)[O-],"inconclusive: 2.59 µM [activator, partial curve]"
15,CCC(=O)Nc1nc2ccccc2n1CCN1CCOCC1,inactive
16,CC[N+](CC)(CC)CC(=O)Nc1ccc(SC(F)F)cc1,inactive
17,CCN(c1ccc(OC)cc1)S(=O)(=O)c1ccc2c(c1)CC(C)N2C(=O)C1CC1 (stereo not drawn),"inconclusive: 29.1 µM [inhibitor, single point]"
18,O=[N+]([O-])c1ccccc1N/N=C1\CC2CC=CC12 (stereo not drawn),"inconclusive: 20.6 µM [activator, single point]"
19,COc1ccccc1CCN1CCCC(CN(C)C(=O)c2ccoc2)C1 (stereo not drawn),inactive
20,CC(=O)c1ccccc1NS(=O)(=O)c1cccc2nsnc12,inactive
21,Cc1ccc(C(=O)CSc2nnnn2C(C)C)c(C)c1,"inconclusive: 0.411 µM [activator, full curve]"
22,CCOc1ccccc1NC(=O)c1cc(-c2cc(OC)c(OC)c(OC)c2)nc2ccccc12,"inconclusive: 29.1 µM [inhibitor, single point]"
23,CCCc1nc(NCC2CCCO2)c2nnn(Cc3ccccc3)c2n1 (stereo not drawn),active: 25.9 µM
24,Cc1ccc(S(=O)(=O)N2CCOCC2)cc1NC(=O)CN1C(=O)CN(C)C1=O,inactive

row,Compound,Potency
1,CCOc1ccc(S(=O)(=O)Nc2ccccc2C(=O)Nc2ccccc2N2CCOCC2)cc1,inactive
2,CC(C)C(=O)N1CCN(c2ccccc2NC(=O)COc2ccc(C3CCCCC3)cc2)CC1,active: 20.6 µM
3,Cc1cc(Oc2nnnn2-c2ccccc2)ccc1Cl,"inconclusive: 20.6 µM [activator, single point]"
4,CCOc1ccc2nc3cc(NCc4ccc(OC)cc4)ccc3c(N)c2c1,inactive
5,Cc1ccc(-c2nc3ccccc3[nH]2)cc1NC(=O)c1ccco1,inactive
6,Cc1ccccc1Nc1nc(NCc2ccco2)c2ccccc2n1,"inconclusive: 29.1 µM [inhibitor, single point]"
7,CN(C)S(=O)(=O)c1ccc(C(=O)OCCn2cnc3c2c(=O)n(C)c(=O)n3C)cc1,"inconclusive: 29.1 µM [inhibitor, single point]"
8,Cc1ccc2nc3c(cc(C(=O)NCC4CCCO4)n3C)c(=O)n2c1 (stereo not drawn),"inconclusive: 10.3 µM [activator, partial curve]"
9,C=CCN(c1ccccc1)S(=O)(=O)c1cccc(C(=O)Nc2cc(C)ccn2)c1,"inconclusive: 7.3 µM [activator, single point]"
10,Cc1ccccc1OCC(=O)NCC(C)(C)N1CCOCC1,inactive
11,CN(C)CCOc1cc(Cl)cc(Cl)c1,"inconclusive: 29.1 µM [inhibitor, single point]"
12,CCOc1cc(/C=C2\C(=N)N3N=C(S(C)(=O)=O)SC3=NC2=O)ccc1OCCOc1cccc(OC)c1,inactive
13,O=C(COc1ccccc1F)NCCc1ccc2c(c1)OCCO2,"inconclusive: 20.6 µM [activator, single point]"
14,CC(C)(C(=O)N[C@H](CO)c1ccccc1)C(=O)N[C@H](CO)c1ccccc1,inactive
15,C/C(=N\NC(=O)c1c(Cl)cnn1C)c1ccc(NC(=O)c2ccncc2)cc1,inactive
16,Cc1c(OCC(=O)N2CCC(C(N)=O)CC2)ccc2c3c(c(=O)oc12)CCC3,"inconclusive: 0.103 µM [activator, full curve]"
17,Cc1ccc(Nc2ncnc3sc(C)c(C)c23)cc1C,"inconclusive: 20.6 µM [activator, single point]"
18,Cn1c(N)c(C(=O)c2cc(-c3ccccc3)nc3ccccc23)c(=O)n(C)c1=O,"inconclusive: 23.1 µM [activator, partial curve]"
19,O=C1c2ccccc2N2C(=O)c3ccccc3C2N1Cc1ccco1 (stereo not drawn),"inconclusive: 29.1 µM [inhibitor, partial curve, poor fit]"
20,Cc1ccc(C(C)C)c(OCCNCCc2ccccc2)c1,"inconclusive: 1.83 µM [inhibitor, partial curve, poor fit]"
21,COC(=O)c1cccc(NC(=O)CC2C(=O)NCCN2C(=O)Nc2cc(C)cc(C)c2)c1 (stereo not drawn),inactive
22,Cc1ccccc1C(=O)NC(CC(C)C)C(=O)NN1C(=O)c2ccccc2C1=O (stereo not drawn),inactive
23,O=C(COc1ccc(Br)cc1)N1CCNC1=O,"inconclusive: 16.4 µM [activator, partial curve]"
24,N/C(=N\C(=S)Nc1ccccc1)c1ccccc1,"inconclusive: 5.17 µM [activator, partial curve]"

# Some values from the entries so far:
# In Potency, C/C(=N\NC(=O)c1c(Cl)cnn1C)c1ccc(NC(=O)c2ccncc2)cc1 is listed with inactive
# In Potency, Cc1ccccc1C(=O)NC(CC(C)C)C(=O)NN1C(=O)c2ccccc2C1=O (stereo not drawn) is listed with inactive
